The source of these data is PMC10449909.

These are yes or no findings as the source states them, for the method shown. For some assays here: In cells and extracts the contact can be indirect. Some binding calls cover weakened binding; strength is not graded here.

The target in experiment [1] is T1, receptor-interacting protein kinase 1 (RIPK1), mouse (mouse (endogenous in L929 and MDF)), Q60855.
T1 chain: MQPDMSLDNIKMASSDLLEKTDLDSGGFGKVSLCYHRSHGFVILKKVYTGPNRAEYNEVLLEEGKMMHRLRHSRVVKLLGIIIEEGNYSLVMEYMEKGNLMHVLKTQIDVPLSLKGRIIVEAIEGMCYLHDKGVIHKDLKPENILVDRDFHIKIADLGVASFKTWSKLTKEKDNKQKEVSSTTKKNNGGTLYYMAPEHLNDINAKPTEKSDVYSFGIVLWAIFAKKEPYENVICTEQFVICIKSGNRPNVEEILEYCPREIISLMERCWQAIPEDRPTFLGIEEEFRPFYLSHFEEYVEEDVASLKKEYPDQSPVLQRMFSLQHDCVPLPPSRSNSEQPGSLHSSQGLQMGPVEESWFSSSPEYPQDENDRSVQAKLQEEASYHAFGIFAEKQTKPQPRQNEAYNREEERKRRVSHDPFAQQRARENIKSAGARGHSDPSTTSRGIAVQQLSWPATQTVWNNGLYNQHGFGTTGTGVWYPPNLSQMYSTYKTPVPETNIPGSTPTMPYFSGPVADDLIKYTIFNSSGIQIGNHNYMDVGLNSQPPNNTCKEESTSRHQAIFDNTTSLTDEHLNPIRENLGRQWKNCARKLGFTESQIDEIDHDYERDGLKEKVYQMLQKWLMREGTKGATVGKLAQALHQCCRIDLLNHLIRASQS
The experiment is described as follows: co-IP; endogenous RIPK1 immunoprecipitated with anti-RIPK1 antibody (overnight, 4 °C; Protein A/G agarose) from RIPA lysates of L929, MDF or HT29 cells after necroptosis induction, cells pretreated with DMSO, Vemurafenib or Nec-1; RIPK3 detected by western blot. To be noted: remark: other sources report otherwise. Background: Immunoblotting shows a protein as a band on a membrane.

The target in experiment [2] is mixed lineage kinase domain-like (MLKL), mouse (mouse (endogenous in L929 and MDF)) (UniProt Q9D2Y4). Put plainly: non-reducing SDS-PAGE and immunoblot; L929, MDF or HT29 cells after necroptosis induction (pretreated with DMSO, Vemurafenib or Nec-1) lysed with non-reducing sample buffer; RIPK3 and MLKL oligomers detected by immunoblotting.

B1: receptor-interacting protein kinase 3 (RIPK3), mouse, Q9QZL0 1-486 (protein)
chain: MSSVKLWPTGASAVPLVSREELKKLEFVGKGGFGVVFRAHHRTWNHDVAVKIVNSKKISWEVKAMVNLRNENVLLLLGVTEDLQWDFVSGQALVTRFMENGSLAGLLQPECPRPWPLLCRLLQEVVLGMCYLHSLNPPLLHRDLKPSNILLDPELHAKLADFGLSTFQGGSQSGSGSGSGSRDSGGTLAYLDPELLFDVNLKASKASDVYSFGILVWAVLAGREAELVDKTSLIRETVCDRQSRPPLTELPPGSPETPGLEKLKELMIHCWGSQSENRPSFQDCEPKTNEVYNLVKDKVDAAVSEVKHYLSQHRSSGRNLSAREPSQRGTEMDCPRETMVSKMLDRLHLEEPSGPVPGKCPERQAQDTSVGPATPARTSSDPVAGTPQIPHTLPFRGTTPGPVFTETPGPHPQRNQGDGRHGTPWYPWTPPNPMTGPPALVFNNCSEVQIGNYNSLVAPPRTTASSSAKYDQAQFGRGRGWQPFHK
For the molecule B1, in experiment [1], the binding entry is recorded as “binds”.

B2: mixed lineage kinase domain-like (MLKL), mouse (protein, UniProt Q9D2Y4 1-472)
chain: MDKLGQIIKLGQLIYEQCEKMKYCRKQCQRLGNRVHGLLQPLQRLQAQGKKNLPDDITAALGRFDEVLKEANQQIEKFSKKSHIWKFVSVGNDKILFHEVNEKLRDVWEELLLLLQVYHWNTVSDVSQPASWQQEDRQDAEEDGNENMKVILMQLQISVEEINKTLKQCSLKPTQEIPQDLQIKEIPKEHLGPPWTKLKTSKMSTIYRGEYHRSPVTIKVFNNPQAESVGIVRFTFNDEIKTMKKFDSPNILRIFGICIDQTVKPPEFSIVMEYCELGTLRELLDREKDLTMSVRSLLVLRAARGLYRLHHSETLHRNISSSSFLVAGGYQVKLAGFELSKTQNSISRTAKSTKAERSSSTIYVSPERLKNPFCLYDIKAEIYSFGIVLWEIATGKIPFEGCDSKKIRELVAEDKKQEPVGQDCPELLREIINECRAHEPSQRPSVDGRSLSGRERILERLSAVEESTDKKV
In the case of B2, in experiment [2], the binding result is given as “binds”.
